Source: the supplement of paper PMC10735217
The other results are listed elsewhere or left out. Repeats in this data set agree poorly, so a single value says little.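 In a drug-repurposing library screen, luminescence reads luciferase driven by eight TEAD-binding elements, stably integrated into human kidney-derived cells. Compounds scoring over five robust Z scores above the plate mean are called hits.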

Test system: HEK293A TEAD-LUC reporter
Assay: TEAD-luciferase reporter activity (YAP activation), robust Z score vs plate; higher = stronger YAP/TEAD activation
Conditions: 24 h

Row | SMILES | TEAD-luciferase reporter activity (compound concentration: 200 nM) | TEAD-luciferase reporter activity (compound concentration: 10 uM) | TEAD-luciferase reporter activity (compound concentration: 2 uM)
1 | CC/C=C\C/C=C\C/C=C\CCCCCCCC(=O)O [Linolenic acid] | inactive: 2.24 | inactive: -1.21 | 
2 | CC/C=C\C/C=C\C/C=C\CCCCCCCC(=O)O [alpha-Linolenic acid] |  |  | inactive: -0.827
3 | Cn1c(=O)n(CCO)c(=O)c2ccc(C(F)(F)F)cc21 | inactive: -0.0622 | inactive: 3.44 | inactive: -1.23
4 | COc1ccc(O)cc1 | inactive: -0.631 | inactive: 0.189 | inactive: -1.68
5 | Cc1ccc(-c2ncc(Cl)cc2-c2ccc(S(C)(=O)=O)cc2)cn1 [Etoricoxib] | inactive: -1.16 | inactive: 1.66 | 
6 | Cc1ccc(-c2ncc(Cl)cc2-c2ccc(S(C)(=O)=O)cc2)cn1 [etoricoxib (gel)] |  |  | inactive: -2.18
7 | CCCc1c2oc(C(=O)O)cc(=O)c2cc2c(=O)cc(C(=O)O)n(CC)c12 [nedocromil sodium, Allergan] | inactive: -2.02 | inactive: -0.478 | inactive: -0.658
8 | CC(C)CN(CCCC(O)(c1ccccc1)c1ccccc1)CC(C)C | inactive: -0.959 | inactive: 0.263 | inactive: 0.804
9 | CNCC(O)CC12CCC(c3ccccc31)c1ccccc12 (stereo not given) | inactive: -0.0189 | inactive: -0.677 | inactive: 1.7
10 | Fc1ccc2c(CCNCc3cccc(OCC(F)(F)C(F)F)c3)c[nH]c2c1 [idalopirdine] | inactive: -1.42 | inactive: 2.45 | inactive: -0.144
11 | COc1cc([C@@H]2c3cc4c(cc3[C@@H](O[C@@H]3O[C@@H]5CO[C@@H](C)O[C@H]5[C@H](O)[C@H]3O)[C@H]3COC(=O)[C@H]23)OCO4)cc(OC)c1O | inactive: -1.62 | active: 5.53 | 
12 | COc1cc([C@@H]2c3cc4c(cc3[C@@H](O[C@@H]3O[C@@H]5CO[C@@H](C)O[C@H]5[C@H](O)[C@H]3O)[C@H]3COC(=O)[C@H]23)OCO4)cc(OC)c1O [etoposide] |  |  | inactive: 0.596
13 | COc1cccc(OCC2CCCCN2)c1 (stereo not given) | inactive: -1.09 | inactive: -1.33 | active: 5.19
14 | COc1ccc(OC(=O)N(CC(=O)O)C(C)c2ccc(OCCc3nc(-c4ccccc4)oc3C)cc2)cc1 (stereo not given) | inactive: -0.733 | inactive: 0.12 | inactive: -0.935
15 | Cc1cccc(-c2cccc(CN3CCC(NC(=O)c4ccc(F)cc4)CC3)c2)c1 | inactive: -1.31 | active: 5.4 | 
16 | CN1Cc2cc(C(=O)N3CCC(C4CCNCC4)CC3)ccc2N[C@@H](CC(=O)O)C1=O | inactive: 0.732 | inactive: 2.17 | inactive: -0.215

Taken from above.
For TEAD-luciferase reporter activity (compound concentration: 2 uM), COc1cccc(OCC2CCCCN2)c1 (stereo not given) is entered as active: 5.19
For TEAD-luciferase reporter activity (compound concentration: 10 uM), Fc1ccc2c(CCNCc3cccc(OCC(F)(F)C(F)F)c3)c[nH]c2c1 [idalopirdine] is entered as inactive: 2.45

Next records.

Row | SMILES | TEAD-luciferase reporter activity (compound concentration: 200 nM) | TEAD-luciferase reporter activity (compound concentration: 10 uM) | TEAD-luciferase reporter activity (compound concentration: 2 uM)
17 | N=C(N)NCC1CCCCCCN1 (stereo not given) [Guanazodine] | inactive: -0.706 | inactive: 1.57 | inactive: -0.557
18 | CCCCc1nc(CCCC)n(Cc2ccc(-c3ccccc3-c3nnn[nH]3)nc2)n1 | inactive: 0.654 | inactive: 0.554 | inactive: -1.11
19 | CCCn1c(=O)n(CCC)c2cc(Cl)ccc21 | inactive: 0.678 | inactive: 0.421 | inactive: -0.255
20 | O=C(O)C1=CS[C@@H]2/C(=C\c3cnc4n3CCOC4)C(=O)N12 |  |  | inactive: 2.38
21 | O=C(O)C1=CS[C@@H]2/C(=C\c3cnc4n3CCOC4)C(=O)N12 [BLI-489 hydrate] | inactive: 2.29 | inactive: -1.37 | 
22 | CC(C)(C)c1cc(CN)c(O)c(S(C)(=O)=O)c1 [lemidosul] | inactive: -3.59 | inactive: -0.789 | inactive: -0.659
23 | CON(C)C(=O)[C@H](O)[C@H](Cc1ccccc1)NC(=O)c1cc2cc(Cl)ccc2[nH]1 | inactive: 4.22 | inactive: -1.9 | inactive: 0.00391
24 | COc1cc(C(=O)N2CCO[C@](CCN3CCC4(CC3)c3ccccc3CS4=O)(c3ccc(Cl)c(Cl)c3)C2)cc(OC)c1OC (stereo not given in full) | inactive: -0.853 | inactive: 2.93 | inactive: -2.46
25 | COc1ccc(-c2cc(C(OC)(OC)c3ccc(Cl)c(C(N)=O)c3)nn2-c2ccc(OC)cc2)cc1 | inactive: -0.856 | inactive: 0.293 | inactive: -0.372
26 | O=C(CN1CCCC1)N1c2ccccc2Sc2ccccc21 | inactive: 0.232 | inactive: -0.268 | inactive: -0.13
27 | CCC(N(NC(=O)c1cccc(OC)c1C)C(=O)c1cc(C)cc(C)c1)C(C)(C)C (stereo not given) | inactive: -1.38 | inactive: -0.144 | inactive: 2.9
28 | CCCC(=O)C1c2cccc(O)c2C(=O)c2c(O)cccc21 | inactive: -0.709 | inactive: 1.38 | inactive: 1.64
29 | O=C1C=CN(C2OC(CO)C(O)C2O)C(=O)C1 (stereo not given) |  |  | inactive: 1.36
30 | O=C1C=CN(C2OC(CO)C(O)C2O)C(=O)C1 (stereo not given) [3-Deazauridine] | inactive: 0.077 | inactive: 1.45 | 
31 | N=C(N)SCCCCCCCC(=O)N[C@@H](CC(=O)O)C(=O)N[C@@H](Cc1ccccc1)C(=O)O | inactive: 0.216 | inactive: 1.04 | inactive: -0.0205
32 | O=C1/C(=N\c2cccc(C(F)(F)F)c2)c2ccccc2N1c1ccccc1 | inactive: -0.777 | inactive: -1.61 | inactive: -1.22
